Results are given in words; binding and its absence hold for the method and conditions named. In cells and extracts the contact can be indirect. Some results given as binding are weak or reduced against the parent protein; the word gives no strength.
Molecular target: c-Myb transactivation domain (aa186-325) fused to GST (UniProt P06876)
Experiment: pull-down; c-Myb transactivation domain (aa186-325) fused to GST as bait; extracts from wild type and CBP^KIX/KIX mouse embryonic fibroblasts; Buffer C (extraction buffer without protein) as control; only the target purified

Amino acid sequences for entries named in this document (tags omitted). Residues count along the entry.
UniProt P06876, residues 186-325: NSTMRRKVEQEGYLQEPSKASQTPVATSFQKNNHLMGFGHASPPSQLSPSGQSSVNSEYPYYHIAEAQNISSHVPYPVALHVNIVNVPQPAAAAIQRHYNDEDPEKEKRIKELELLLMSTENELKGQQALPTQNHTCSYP
UniProt P45481: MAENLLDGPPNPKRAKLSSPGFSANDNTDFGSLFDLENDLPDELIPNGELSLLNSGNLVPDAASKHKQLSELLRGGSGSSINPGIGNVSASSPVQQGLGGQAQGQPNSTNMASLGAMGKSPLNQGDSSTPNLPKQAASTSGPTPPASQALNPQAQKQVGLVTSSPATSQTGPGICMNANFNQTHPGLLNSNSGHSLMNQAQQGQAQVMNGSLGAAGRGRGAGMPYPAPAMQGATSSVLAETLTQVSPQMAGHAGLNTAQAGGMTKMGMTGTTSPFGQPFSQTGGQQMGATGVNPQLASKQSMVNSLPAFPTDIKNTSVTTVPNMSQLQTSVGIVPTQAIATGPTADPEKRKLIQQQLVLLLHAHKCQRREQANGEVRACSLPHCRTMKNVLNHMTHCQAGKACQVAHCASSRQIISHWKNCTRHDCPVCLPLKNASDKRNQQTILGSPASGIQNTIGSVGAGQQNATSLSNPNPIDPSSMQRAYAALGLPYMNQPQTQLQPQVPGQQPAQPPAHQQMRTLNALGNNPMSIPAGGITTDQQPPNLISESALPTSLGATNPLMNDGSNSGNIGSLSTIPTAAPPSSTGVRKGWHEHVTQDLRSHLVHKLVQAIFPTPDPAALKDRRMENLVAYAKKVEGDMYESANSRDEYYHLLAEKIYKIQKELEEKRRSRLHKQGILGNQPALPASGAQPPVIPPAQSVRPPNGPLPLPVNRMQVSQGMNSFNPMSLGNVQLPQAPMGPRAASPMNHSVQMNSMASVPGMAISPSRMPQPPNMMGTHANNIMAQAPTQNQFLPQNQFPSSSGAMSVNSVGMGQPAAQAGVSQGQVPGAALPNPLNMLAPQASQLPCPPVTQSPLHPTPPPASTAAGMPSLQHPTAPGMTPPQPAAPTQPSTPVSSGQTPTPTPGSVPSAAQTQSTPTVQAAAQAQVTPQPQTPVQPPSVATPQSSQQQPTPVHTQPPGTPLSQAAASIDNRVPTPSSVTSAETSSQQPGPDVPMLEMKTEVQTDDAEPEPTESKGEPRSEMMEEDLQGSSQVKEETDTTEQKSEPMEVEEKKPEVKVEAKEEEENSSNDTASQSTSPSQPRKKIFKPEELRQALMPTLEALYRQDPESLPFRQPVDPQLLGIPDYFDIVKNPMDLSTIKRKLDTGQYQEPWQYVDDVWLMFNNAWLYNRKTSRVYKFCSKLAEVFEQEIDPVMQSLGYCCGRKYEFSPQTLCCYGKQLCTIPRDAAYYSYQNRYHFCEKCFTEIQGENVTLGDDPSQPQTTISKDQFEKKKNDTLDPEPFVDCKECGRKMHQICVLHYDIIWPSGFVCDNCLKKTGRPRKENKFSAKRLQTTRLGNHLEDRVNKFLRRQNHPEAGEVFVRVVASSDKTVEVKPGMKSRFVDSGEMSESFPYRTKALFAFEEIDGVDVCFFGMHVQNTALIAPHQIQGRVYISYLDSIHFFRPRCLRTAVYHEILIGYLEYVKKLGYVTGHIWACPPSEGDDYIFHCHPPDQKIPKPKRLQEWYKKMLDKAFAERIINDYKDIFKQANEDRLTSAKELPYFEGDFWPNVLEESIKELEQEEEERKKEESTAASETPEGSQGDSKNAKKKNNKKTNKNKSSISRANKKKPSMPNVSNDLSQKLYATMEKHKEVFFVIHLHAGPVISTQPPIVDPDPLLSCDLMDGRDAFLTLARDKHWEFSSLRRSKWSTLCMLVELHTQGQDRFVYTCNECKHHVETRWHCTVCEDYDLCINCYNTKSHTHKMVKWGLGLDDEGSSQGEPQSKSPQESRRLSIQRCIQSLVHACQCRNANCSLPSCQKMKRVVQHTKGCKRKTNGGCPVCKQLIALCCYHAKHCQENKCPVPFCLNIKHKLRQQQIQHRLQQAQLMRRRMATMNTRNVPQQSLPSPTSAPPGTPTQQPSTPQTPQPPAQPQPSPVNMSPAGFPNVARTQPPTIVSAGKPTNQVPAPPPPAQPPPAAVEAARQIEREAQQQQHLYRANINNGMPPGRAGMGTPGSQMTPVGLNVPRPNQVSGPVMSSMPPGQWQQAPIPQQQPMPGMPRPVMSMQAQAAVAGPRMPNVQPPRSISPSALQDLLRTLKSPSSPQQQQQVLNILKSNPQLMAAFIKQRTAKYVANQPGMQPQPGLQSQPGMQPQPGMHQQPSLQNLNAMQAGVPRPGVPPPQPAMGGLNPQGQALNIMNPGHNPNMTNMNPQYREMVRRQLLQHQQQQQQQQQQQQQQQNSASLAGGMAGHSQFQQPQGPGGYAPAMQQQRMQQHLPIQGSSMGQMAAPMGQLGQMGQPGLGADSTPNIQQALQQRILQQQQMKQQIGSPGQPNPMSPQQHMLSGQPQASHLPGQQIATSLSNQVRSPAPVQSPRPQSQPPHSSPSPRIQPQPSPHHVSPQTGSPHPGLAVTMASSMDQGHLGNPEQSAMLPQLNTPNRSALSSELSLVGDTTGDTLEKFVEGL

“CBP (CREB binding protein, Crebbp) (from UniProt P45481 1-2441)” was tested, and the binding was “binds”.

Source: paper PMC3858336
